No constants are given. Whether binding was seen depends on the method and setting. In cells and extracts the contact can be indirect. Here binding means that the protein was enriched with, or labelled near, the bait; the list need not be complete.
How the values were obtained:
[1] = target: T7-2xStrep-JCV Sm t-Ag (JC virus (JCV)) (UniProt P03083); experiment: affinity purification with mass spectrometry
[2] = target: T7-2xStrep-JCV LT-Ag (JC virus (JCV)) (UniProt P03072); experiment: affinity purification with mass spectrometry

By UniProt entry, the sequences of proteins in these tests, tags left out. Where a name states a change or a piece, a line headed by the entry shows the natural chain unless it says otherwise.
UniProt P03083: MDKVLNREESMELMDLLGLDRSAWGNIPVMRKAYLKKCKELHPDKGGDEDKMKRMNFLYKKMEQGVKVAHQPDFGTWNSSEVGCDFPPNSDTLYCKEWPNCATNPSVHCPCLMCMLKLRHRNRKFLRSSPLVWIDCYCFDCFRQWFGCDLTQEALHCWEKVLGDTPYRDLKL
UniProt P03072: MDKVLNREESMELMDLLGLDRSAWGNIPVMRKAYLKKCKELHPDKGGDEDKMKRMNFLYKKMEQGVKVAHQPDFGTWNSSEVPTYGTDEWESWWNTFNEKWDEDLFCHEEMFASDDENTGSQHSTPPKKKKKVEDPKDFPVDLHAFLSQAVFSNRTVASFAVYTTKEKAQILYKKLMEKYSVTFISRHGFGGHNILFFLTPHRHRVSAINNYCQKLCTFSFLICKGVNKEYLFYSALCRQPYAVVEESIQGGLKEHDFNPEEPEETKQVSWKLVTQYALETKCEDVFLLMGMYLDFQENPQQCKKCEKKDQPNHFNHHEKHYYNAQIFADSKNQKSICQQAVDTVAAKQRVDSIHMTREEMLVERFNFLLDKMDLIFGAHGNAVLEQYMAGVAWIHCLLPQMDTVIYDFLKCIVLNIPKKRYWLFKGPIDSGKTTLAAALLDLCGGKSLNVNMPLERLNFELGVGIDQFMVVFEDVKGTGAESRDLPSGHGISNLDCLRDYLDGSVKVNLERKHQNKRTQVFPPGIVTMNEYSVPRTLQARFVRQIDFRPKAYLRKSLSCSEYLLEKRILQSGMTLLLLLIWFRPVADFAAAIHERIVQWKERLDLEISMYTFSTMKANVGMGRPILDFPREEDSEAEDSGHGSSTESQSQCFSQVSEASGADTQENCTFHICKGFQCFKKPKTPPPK
UniProt P45973: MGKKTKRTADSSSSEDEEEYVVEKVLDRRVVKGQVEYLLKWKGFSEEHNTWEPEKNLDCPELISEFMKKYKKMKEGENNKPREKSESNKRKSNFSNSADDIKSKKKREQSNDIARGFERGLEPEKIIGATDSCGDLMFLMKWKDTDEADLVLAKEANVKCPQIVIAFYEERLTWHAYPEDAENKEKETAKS
UniProt Q14247: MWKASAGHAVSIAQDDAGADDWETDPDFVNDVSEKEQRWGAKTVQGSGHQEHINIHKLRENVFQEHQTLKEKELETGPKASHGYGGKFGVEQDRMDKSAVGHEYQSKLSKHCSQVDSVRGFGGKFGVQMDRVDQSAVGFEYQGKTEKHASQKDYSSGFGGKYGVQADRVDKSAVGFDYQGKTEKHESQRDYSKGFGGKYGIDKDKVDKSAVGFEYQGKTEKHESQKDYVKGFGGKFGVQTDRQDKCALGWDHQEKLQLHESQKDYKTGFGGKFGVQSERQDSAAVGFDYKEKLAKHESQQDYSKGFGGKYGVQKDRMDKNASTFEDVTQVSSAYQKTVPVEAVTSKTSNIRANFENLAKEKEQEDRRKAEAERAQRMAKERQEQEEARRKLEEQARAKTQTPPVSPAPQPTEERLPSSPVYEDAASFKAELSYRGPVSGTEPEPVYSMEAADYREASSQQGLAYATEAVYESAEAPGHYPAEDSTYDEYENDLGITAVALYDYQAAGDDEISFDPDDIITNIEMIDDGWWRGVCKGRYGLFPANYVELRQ
UniProt Q9UHB6: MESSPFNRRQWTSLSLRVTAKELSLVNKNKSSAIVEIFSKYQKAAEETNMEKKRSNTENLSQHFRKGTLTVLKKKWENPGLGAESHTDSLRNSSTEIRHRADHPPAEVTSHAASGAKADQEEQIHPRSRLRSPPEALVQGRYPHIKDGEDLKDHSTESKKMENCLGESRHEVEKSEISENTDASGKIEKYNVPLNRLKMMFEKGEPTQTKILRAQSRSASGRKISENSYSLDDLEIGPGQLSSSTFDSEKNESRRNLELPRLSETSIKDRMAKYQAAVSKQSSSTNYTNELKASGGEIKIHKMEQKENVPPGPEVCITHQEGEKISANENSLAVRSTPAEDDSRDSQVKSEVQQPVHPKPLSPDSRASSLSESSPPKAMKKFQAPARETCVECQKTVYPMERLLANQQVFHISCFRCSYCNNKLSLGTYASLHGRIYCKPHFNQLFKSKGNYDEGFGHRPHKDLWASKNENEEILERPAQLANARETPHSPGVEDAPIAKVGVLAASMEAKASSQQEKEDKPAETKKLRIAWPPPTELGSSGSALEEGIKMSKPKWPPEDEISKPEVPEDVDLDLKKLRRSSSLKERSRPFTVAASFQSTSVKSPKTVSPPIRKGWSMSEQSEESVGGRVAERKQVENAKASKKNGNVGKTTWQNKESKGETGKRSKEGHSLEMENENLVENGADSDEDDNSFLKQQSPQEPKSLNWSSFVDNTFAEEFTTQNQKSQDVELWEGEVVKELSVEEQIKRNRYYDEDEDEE
UniProt P31942: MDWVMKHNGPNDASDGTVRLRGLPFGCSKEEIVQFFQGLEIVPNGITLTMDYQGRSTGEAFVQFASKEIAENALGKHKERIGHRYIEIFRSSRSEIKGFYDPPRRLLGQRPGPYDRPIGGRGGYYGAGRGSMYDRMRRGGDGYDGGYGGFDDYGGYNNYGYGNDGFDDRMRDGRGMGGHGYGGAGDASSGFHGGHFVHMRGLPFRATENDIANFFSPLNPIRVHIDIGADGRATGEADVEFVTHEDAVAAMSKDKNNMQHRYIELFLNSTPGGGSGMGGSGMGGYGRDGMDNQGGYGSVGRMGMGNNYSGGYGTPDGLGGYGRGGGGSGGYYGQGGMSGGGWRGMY
UniProt O43795: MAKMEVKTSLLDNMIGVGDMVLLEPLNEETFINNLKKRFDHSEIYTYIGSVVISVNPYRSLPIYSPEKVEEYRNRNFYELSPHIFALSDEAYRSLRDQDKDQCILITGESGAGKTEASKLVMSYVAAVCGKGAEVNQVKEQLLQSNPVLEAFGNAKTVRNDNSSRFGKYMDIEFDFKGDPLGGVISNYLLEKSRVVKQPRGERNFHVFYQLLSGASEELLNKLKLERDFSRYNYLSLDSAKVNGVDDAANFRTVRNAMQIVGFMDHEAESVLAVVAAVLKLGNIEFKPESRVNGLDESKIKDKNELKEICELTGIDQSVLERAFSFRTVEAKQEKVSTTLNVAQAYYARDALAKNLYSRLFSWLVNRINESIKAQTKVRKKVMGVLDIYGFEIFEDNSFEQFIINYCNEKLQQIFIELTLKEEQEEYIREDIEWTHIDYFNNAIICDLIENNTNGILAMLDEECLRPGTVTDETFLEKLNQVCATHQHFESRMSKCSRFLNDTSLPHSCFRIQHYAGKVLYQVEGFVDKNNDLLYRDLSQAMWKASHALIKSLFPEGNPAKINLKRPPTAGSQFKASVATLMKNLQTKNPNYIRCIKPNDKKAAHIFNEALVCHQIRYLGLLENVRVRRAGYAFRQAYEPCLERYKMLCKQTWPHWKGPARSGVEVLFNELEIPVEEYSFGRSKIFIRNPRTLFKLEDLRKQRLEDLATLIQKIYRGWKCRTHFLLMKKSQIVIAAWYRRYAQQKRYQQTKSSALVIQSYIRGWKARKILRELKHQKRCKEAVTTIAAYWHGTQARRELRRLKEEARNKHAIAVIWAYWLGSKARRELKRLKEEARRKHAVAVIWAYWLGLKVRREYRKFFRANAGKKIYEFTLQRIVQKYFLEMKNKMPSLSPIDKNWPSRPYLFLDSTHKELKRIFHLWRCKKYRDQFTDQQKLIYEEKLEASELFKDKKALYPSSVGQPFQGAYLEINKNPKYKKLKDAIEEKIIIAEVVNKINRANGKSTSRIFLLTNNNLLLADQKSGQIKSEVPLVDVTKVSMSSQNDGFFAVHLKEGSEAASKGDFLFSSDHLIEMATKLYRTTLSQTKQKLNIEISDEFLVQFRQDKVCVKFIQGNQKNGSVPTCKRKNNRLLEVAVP
UniProt Q9UM54: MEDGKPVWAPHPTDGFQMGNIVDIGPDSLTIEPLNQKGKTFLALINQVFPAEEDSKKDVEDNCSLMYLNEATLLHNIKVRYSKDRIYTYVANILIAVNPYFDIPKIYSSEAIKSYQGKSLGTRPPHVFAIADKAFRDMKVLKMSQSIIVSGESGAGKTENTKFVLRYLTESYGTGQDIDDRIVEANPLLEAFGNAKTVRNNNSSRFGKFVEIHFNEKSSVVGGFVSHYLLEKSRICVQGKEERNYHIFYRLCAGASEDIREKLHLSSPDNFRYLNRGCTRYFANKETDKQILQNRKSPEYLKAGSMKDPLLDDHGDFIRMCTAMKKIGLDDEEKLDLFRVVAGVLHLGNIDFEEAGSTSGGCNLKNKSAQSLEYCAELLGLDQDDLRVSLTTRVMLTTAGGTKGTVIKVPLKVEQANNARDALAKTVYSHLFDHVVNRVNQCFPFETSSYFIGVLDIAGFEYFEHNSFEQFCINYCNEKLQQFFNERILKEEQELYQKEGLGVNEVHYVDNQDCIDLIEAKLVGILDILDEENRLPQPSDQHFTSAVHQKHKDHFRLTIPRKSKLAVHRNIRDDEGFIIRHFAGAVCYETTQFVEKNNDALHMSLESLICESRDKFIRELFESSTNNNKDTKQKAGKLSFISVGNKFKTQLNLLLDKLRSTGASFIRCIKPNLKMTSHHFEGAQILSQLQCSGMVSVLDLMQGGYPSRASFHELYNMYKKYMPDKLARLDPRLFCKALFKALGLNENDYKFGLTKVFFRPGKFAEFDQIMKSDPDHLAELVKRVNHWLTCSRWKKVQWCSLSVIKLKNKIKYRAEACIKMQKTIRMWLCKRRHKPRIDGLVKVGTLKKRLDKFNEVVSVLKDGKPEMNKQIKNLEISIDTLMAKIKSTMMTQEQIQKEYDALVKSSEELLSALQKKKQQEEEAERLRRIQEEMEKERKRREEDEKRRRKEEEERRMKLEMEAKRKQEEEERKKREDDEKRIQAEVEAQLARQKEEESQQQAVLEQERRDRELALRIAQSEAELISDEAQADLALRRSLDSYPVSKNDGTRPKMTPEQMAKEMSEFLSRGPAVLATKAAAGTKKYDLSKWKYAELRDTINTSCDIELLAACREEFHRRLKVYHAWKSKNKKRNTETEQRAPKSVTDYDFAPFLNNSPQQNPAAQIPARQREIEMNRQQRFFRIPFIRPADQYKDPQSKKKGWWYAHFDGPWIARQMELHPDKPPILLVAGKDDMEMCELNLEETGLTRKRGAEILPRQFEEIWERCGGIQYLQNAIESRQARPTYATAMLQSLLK
UniProt Q92598: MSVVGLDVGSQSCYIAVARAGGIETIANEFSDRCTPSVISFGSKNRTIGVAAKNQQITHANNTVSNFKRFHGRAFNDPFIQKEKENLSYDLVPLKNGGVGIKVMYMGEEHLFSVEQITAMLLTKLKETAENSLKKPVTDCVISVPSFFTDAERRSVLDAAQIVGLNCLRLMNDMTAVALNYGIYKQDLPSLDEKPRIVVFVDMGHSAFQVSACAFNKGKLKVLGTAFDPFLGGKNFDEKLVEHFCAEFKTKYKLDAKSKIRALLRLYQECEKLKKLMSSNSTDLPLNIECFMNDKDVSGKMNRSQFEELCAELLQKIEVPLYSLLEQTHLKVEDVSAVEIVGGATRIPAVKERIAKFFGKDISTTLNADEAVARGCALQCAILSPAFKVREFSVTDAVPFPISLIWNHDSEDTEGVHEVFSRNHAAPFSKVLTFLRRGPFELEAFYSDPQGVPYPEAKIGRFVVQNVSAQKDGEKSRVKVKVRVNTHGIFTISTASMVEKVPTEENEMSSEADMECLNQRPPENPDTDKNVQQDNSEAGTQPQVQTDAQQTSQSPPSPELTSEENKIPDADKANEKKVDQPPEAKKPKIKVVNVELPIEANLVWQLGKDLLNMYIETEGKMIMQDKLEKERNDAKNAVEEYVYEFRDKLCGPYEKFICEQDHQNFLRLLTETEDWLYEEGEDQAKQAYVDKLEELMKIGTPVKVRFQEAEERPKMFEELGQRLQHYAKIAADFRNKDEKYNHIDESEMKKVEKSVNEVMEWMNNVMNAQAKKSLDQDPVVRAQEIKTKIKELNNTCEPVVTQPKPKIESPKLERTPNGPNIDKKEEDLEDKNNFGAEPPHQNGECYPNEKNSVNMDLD

In the case of “Actin related protein 2/3 complex, subunit 1B, 41 kDa (from UniProt O15143 1-372)”, the binding [1] is reported as “binds” and the binding [2] is reported as “binds”.

In the case of “Capping protein (Actin filament) muscle Z-line, alpha 2 variant (from UniProt P47755 1-286)”, the binding [1] is reported as “binds” and the binding [2] is reported as “binds”.

In the case of “Chromobox homolog 5 (HP1 alpha homolog, Drosophila) (from UniProt P45973 1-191)”, the binding [1] is reported as “binds” and the binding [2] is reported as “binds”.

With “Cortactin isoform a variant (Fragment) (from UniProt Q14247 1-550)” the binding [1] was “binds” and the binding [2] was “binds”.

With “Epithelial protein lost in neoplasm beta variant (from UniProt Q9UHB6 1-759)” the binding [1] was “binds” and the binding [2] was “binds”.

“Heterogeneous nuclear ribonucleoprotein H3 isoform a variant (from UniProt P31942 1-346)” was tested, and the binding [1] was “binds” and the binding [2] was “binds”.

With “Tumor protein p53 (from UniProt P04637 1-393)” the binding [1] was “binds” and the binding [2] was “binds”.

In the case of “Unconventional myosin-Ib (from UniProt O43795 1-1136)”, the binding [1] is reported as “binds” and the binding [2] is reported as “binds”.

“Unconventional myosin-VI (from UniProt Q9UM54 1-1294)” was tested, and the binding [1] was “binds” and the binding [2] was “binds”.

“cDNA FLJ51707, highly similar to heat-shock protein 105 kDa (from UniProt Q92598 1-858)” was tested, and the binding [1] was “binds” and the binding [2] was “binds”.

B1: Protein Mis18-alpha (protein, UniProt Q9NYP9 1-233)
chain: MAGVRSLRCSRGCAGGCECGDKGKCSDSSLLGKRLSEDSSRHQLLQKWASMWSSMSEDASVADMERAQLEEEAAAAEERPLVFLCSGCRRPLGDSLSWVASQEDTNCILLRCVSCNVSVDKEQKLSKREKENGCVLETLCCAGCSLNLGYVYRCTPKNLDYKRDLFCLSVEAIESYVLGSSEKQIVSEDKELFNLESRVEIEKSLTQMEDVLKALQMKLWEAESKLSFATCKS
In the case of B1, the binding [1] is reported as “binds”.

B2: E3 ubiquitin-protein ligase RNF220 (protein, UniProt Q5VTB9 1-566)
chain: MDLHRAAFKMENSSYLPNPLASPALMVLASTAEASRDASIPCQQPRPFGVPVSVDKDVHIPFTNGSYTFASMYHRQGGVPGTFANRDFPPSLLHLHPQFAPPNLDCTPISMLNHSGVGAFRPFASTEDRESYQSAFTPAKRLKNCHDTESPHLRFSDADGKEYDFGTQLPSSSPGSLKVDDTGKKIFAVSGLISDREASSSPEDRNDRCKKKAAALFDSQAPICPICQVLLRPSELQEHMEQELEQLAQLPSSKNSLLKDAMAPGTPKSLLLSASIKREGESPTASPHSSATDDLHHSDRYQTFLRVRANRQTRLNARIGKMKRRKQDEGQREGSCMAEDDAVDIEHENNNRFEEYEWCGQKRIRATTLLEGGFRGSGFIMCSGKENPDSDADLDVDGDDTLEYGKPQYTEADVIPCTGEEPGEAKEREALRGAVLNGGPPSTRITPEFSKWASDEMPSTSNGESSKQEAMQKTCKNSDIEKITEDSAVTTFEALKARVRELERQLSRGDRYKCLICMDSYSMPLTSIQCWHVHCEECWLRTLGAKKLCPQCNTITAPGDLRRIYL
With B2 the binding [1] was “binds”.

B3: Remodeling and spacing factor 1 (protein, UniProt Q96T23 1-1441)
chain: MATAAAAAAVMAPPGCPGSCPNFAVVCSFLERYGPLLDLPELPFPELERVLQAPPPDVGNGEVPKELVELHLKLMRKIGKSVTADRWEKYLIKICQEFNSTWAWEMEKKGYLEMSVECKLALLKYLCECQFDDNLKFKNIINEEDADTMRLQPIGRDKDGLMYWYQLDQDHNVRMYIEEQDDQDGSSWKCIVRNRNELAETLALLKAQIDPVLLKNSSQQDNSSRESPSLEDEETKKEEETPKQEEQKESEKMKSEEQPMDLENRSTANVLEETTVKKEKEDEKELVKLPVIVKLEKPLPENEEKKIIKEESDSFKENVKPIKVEVKECRADPKDTKSSMEKPVAQEPERIEFGGNIKSSHEITEKSTEETEKLKNDQQAKIPLKKREIKLSDDFDSPVKGPLCKSVTPTKEFLKDEIKQEEETCKRISTITALGHEGKQLVNGEVSDERVAPNFKTEPIETKFYETKEESYSPSKDRNIITEGNGTESLNSVITSMKTGELEKETAPLRKDADSSISVLEIHSQKAQIEEPDPPEMETSLDSSEMAKDLSSKTALSSTESCTMKGEEKSPKTKKDKRPPILECLEKLEKSKKTFLDKDAQRLSPIPEEVPKSTLESEKPGSPEAAETSPPSNIIDHCEKLASEKEVVECQSTSTVGGQSVKKVDLETLKEDSEFTKVEMDNLDNAQTSGIEEPSETKGSMQKSKFKYKLVPEEETTASENTEITSERQKEGIKLTIRISSRKKKPDSPPKVLEPENKQEKTEKEEEKTNVGRTLRRSPRISRPTAKVAEIRDQKADKKRGEGEDEVEEESTALQKTDKKEILKKSEKDTNSKVSKVKPKGKVRWTGSRTRGRWKYSSNDESEGSGSEKSSAASEEEEEKESEEAILADDDEPCKKCGLPNHPELILLCDSCDSGYHTACLRPPLMIIPDGEWFCPPCQHKLLCEKLEEQLQDLDVALKKKERAERRKERLVYVGISIENIIPPQEPDFSEDQEEKKKDSKKSKANLLERRSTRTRKCISYRFDEFDEAIDEAIEDDIKEADGGGVGRGKDISTITGHRGKDISTILDEERKENKRPQRAAAARRKKRRRLNDLDSDSNLDEEESEDEFKISDGSQDEFVVSDENPDESEEDPPSNDDSDTDFCSRRLRRHPSRPMRQSRRLRRKTPKKKYSDDDEEEESEENSRDSESDFSDDFSDDFVETRRRRSRRNQKRQINYKEDSESDGSQKSLRRGKEIRRVHKRRLSSSESEESYLSKNSEDDELAKESKRSVRKRGRSTDEYSEADEEEEEEEGKPSRKRLHRIETDEEESCDNAHGDANQPARDSQPRVLPSEQESTKKPYRIESDEEEDFENVGKVGSPLDYSLVDLPSTNGQSPGKAIENLIGKPTEKSQTPKDNSTASASLASNGTSGGQEAGAPEEEEDELLRVTDLVDYVCNSEQL
In the case of B3, the binding [1] is reported as “binds”.

B4: Succinate Dehydrogenase Complex Iron Sulfur Subunit B (protein, UniProt P21912 29-280)
chain: AQTAAATAPRIKKFAIYRWDPDKAGDKPHMQTYEVDLNKCGPMVLDALIKIKNEVDSTLTFRRSCREGICGSCAMNINGGNTLACTRRIDTNLNKVSKIYPLPHMYVIKDLVPDLSNFYAQYKSIEPYLKKKDESQEGKQQYLQSIEEREKLDGLYECILCACCSTSCPSYWWNGDKYLGPAVLMQAYRWMIDSRDDFTEERLAKLQDPFSLYRCHTIMNCTRTCPKGLNPGKAIAEIKKMMATYKEKKASV
B4 was tested, and the binding [1] was “binds”.

B5: Biotin—protein ligase (protein, UniProt P50747 1-726)
chain: MEDRLHMDNGLVPQKIVSVHLQDSTLKEVKDQVSNKQAQILEPKPEPSLEIKPEQDGMEHVGRDDPKALGEEPKQRRGSASGSEPAGDSDRGGGPVEHYHLHLSSCHECLELENSTIESVKFASAENIPDLPYDYSSSLESVADETSPEREGRRVNLTGKAPNILLYVGSDSQEALGRFHEVRSVLADCVDIDSYILYHLLEDSALRDPWTDNCLLLVIATRESIPEDLYQKFMAYLSQGGKVLGLSSSFTFGGFQVTSKGALHKTVQNLVFSKADQSEVKLSVLSSGCRYQEGPVRLSPGRLQGHLENEDKDRMIVHVPFGTRGGEAVLCQVHLELPPSSNIVQTPEDFNLLKSSNFRRYEVLREILTTLGLSCDMKQVPALTPLYLLSAAEEIRDPLMQWLGKHVDSEGEIKSGQLSLRFVSSYVSEVEITPSCIPVVTNMEAFSSEHFNLEIYRQNLQTKQLGKVILFAEVTPTTMRLLDGLMFQTPQEMGLIVIAARQTEGKGRGGNVWLSPVGCALSTLLISIPLRSQLGQRIPFVQHLMSVAVVEAVRSIPEYQDINLRVKWPNDIYYSDLMKIGGVLVNSTLMGETFYILIGCGFNVTNSNPTICINDLITEYNKQHKAELKPLRADYLIARVVTVLEKLIKEFQDKGPNSVLPLYYRYWVHSGQQVHLGSAEGPKVSIVGLDDSGFLQVHQEGGEVVTVHPDGNSFDMLRNLILPKRR
With B5 the binding [1] was “binds”.

B6: BTB/POZ domain-containing protein 9 (protein, UniProt Q96Q07 1-612)
chain: MSNSHPLRPFTAVGEIDHVHILSEHIGALLIGEEYGDVTFVVEKKRFPAHRVILAARCQYFRALLYGGMRESQPEAEIPLQDTTAEAFTMLLKYIYTGRATLTDEKEEVLLDFLSLAHKYGFPELEDSTSEYLCTILNIQNVCMTFDVASLYSLPKLTCMCCMFMDRNAQEVLSSEGFLSLSKTALLNIVLRDSFAAPEKDIFLALLNWCKHNSKENHAEIMQAVRLPLMSLTELLNVVRPSGLLSPDAILDAIKVRSESRDMDLNYRGMLIPEENIATMKYGAQVVKGELKSALLDGDTQNYDLDHGFSRHPIDDDCRSGIEIKLGQPSIINHIRILLWDRDSRSYSYFIEVSMDELDWVRVIDHSQYLCRSWQKLYFPARVCRYIRIVGTHNTVNKIFHIVAFECMFTNKTFTLEKGLIVPMENVATIADCASVIEGVSRSRNALLNGDTKNYDWDSGYTCHQLGSGAIVVQLAQPYMIGSIRLLLWDCDDRSYSYYVEVSTNQQQWTMVADRTKVSCKSWQSVTFERQPASFIRIVGTHNTANEVFHCVHFECPEQQSSQKEENSEESGTGDTSLAGQQLDSHALRAPSGSSLPSSPGSNSRSPNRQHQ
B6 was tested, and the binding [1] was “binds”.

B7: Heterogeneous nuclear ribonucleoprotein A0 (protein, UniProt Q13151 1-305)
chain: MENSQLCKLFIGGLNVQTSESGLRGHFEAFGTLTDCVVVVNPQTKRSRCFGFVTYSNVEEADAAMAASPHAVDGNTVELKRAVSREDSARPGAHAKVKKLFVGGLKGDVAEGDLIEHFSQFGTVEKAEIIADKQSGKKRGFGFVYFQNHDAADKAAVVKFHPIQGHRVEVKKAVPKEDIYSGGGGGGSRSSRGGRGGRGRGGGRDQNGLSKGGGGGYNSYGGYGGGGGGGYNAYGGGGGGSSYGGSDYGNGFGGFGSYSQHQSSYGPMKSGGGGGGGGSSWGGRSNSGPYRGGYGGGGGYGGSSF
For B7, the binding [1] was “binds”.

B8: Coiled-Coil-Helix-Coiled-Coil-Helix Domain Containing 4 (protein, UniProt Q8N4Q1 1-142)
chain: MSYCRQEGKDRIIFVTKEDHETPSSAELVADDPNDPYEEHGLILPNGNINWNCPCLGGMASGPCGEQFKSAFSCFHYSTEEIKGSDCVDQFRAMQECMQKYPDLYPQEDEDEEEEREKKPAEQAEETAPIEATATKEEEGSS
In the case of B8, the binding [1] is reported as “binds”.

B9: Delta (3,5)-delta (2,4)-dienoyl-CoA isomerase, mitochondrial (protein, UniProt Q13011 34-328)
chain: TGSSAQEEASGVALGEAPDHSYESLRVTSAQKHVLHVQLNRPNKRNAMNKVFWREMVECFNKISRDADCRAVVISGAGKMFTAGIDLMDMASDILQPKGDDVARISWYLRDIITRYQETFNVIERCPKPVIAAVHGGCIGGGVDLVTACDIRYCAQDAFFQVKEVDVGLAADVGTLQRLPKVIGNQSLVNELAFTARKMMADEALGSGLVSRVFPDKEVMLDAALALAAEISSKSPVAVQSTKVNLLYSRDHSVAESLNYVASWNMSMLQTQDLVKSVQATTENKELKTVTFSKL
In the case of B9, the binding [1] is reported as “binds”.
